According to article doi:10.1101/2021.05.06.442885:
Where a chain is given by its changes, count along the chain named. Results are given in words; binding and its absence hold for the method and conditions named. Binding seen in cells or lysates may run through a third protein. Binding can be weak; no strength is given. Tags and fused reporters may be left off the sequences shown.

Experiments:
[1] = biological target: T1, hXkr8-T305C-mGFP (human) (UniProt Q9H6D3); test: cross-linking
T1 sequence: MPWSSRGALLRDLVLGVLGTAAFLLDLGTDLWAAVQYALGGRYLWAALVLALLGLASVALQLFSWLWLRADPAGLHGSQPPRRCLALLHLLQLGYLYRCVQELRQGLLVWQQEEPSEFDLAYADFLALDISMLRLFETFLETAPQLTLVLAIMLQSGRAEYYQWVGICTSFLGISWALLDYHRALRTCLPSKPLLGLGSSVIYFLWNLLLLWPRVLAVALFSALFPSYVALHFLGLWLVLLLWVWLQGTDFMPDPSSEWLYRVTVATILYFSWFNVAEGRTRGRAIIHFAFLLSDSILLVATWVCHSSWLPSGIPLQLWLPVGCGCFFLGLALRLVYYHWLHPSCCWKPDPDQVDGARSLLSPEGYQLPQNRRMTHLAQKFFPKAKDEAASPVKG

[2] = biological target: T2, hXkr8-T302C-mGFP (human) (UniProt Q9H6D3); test: cross-linking
T2 sequence: T1 sequence with T302C, C305T

Row | binding [1] | binding [2] | Substance
1 | binds |  | hBSG-A207C-HA (human)
2 |  | binds | hBSG-P211C-HA (human)
